Data: the supplement of paper PMC10849652
The other results are listed elsewhere or left out.

Protein sequences, listed by entry. Tags and fused reporters are not part of them. Lines headed by an entry give the natural chain unless they say otherwise; changes in a name come on top.
UniProt Q8IYU8: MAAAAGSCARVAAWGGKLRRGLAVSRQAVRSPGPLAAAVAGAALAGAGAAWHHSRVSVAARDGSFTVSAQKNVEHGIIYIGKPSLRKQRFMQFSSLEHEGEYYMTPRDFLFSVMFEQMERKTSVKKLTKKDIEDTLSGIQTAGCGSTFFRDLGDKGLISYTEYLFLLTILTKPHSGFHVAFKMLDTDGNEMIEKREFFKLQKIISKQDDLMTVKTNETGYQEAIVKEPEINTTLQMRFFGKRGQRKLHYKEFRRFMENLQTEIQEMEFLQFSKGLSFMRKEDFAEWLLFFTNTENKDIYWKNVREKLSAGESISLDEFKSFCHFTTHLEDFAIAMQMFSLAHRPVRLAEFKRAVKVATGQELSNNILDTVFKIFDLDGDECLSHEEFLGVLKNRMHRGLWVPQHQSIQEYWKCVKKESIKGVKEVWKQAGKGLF
UniProt Q99797: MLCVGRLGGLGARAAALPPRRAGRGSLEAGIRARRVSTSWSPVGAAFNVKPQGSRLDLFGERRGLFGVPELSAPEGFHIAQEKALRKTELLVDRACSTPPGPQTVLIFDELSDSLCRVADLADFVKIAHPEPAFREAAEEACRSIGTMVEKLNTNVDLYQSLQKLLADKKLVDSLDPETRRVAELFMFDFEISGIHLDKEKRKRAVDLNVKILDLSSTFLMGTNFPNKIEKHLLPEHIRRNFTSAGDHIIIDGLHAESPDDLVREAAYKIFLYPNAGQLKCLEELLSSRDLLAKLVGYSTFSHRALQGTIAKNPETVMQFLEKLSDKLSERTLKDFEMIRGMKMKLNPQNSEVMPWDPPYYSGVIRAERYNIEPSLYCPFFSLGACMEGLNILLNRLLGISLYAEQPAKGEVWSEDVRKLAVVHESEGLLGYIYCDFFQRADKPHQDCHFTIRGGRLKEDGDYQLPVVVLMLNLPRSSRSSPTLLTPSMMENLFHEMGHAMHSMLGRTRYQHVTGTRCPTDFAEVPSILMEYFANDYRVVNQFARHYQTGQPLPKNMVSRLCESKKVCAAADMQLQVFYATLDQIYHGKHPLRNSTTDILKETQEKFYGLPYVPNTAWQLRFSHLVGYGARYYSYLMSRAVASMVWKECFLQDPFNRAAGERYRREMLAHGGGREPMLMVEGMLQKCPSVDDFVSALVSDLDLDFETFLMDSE
UniProt Q9H081: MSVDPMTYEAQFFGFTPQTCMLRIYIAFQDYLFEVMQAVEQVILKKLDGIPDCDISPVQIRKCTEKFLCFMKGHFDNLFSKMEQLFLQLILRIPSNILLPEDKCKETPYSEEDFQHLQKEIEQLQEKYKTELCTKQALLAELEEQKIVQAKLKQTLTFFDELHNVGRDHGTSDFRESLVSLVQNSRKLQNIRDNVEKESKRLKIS
UniProt Q7L9L4: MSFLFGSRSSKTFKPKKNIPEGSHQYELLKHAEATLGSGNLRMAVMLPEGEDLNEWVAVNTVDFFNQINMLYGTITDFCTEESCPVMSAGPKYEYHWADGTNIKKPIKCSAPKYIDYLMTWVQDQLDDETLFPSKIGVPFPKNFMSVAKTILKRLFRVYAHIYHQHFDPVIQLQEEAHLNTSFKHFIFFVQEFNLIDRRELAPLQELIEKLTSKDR
UniProt O96007: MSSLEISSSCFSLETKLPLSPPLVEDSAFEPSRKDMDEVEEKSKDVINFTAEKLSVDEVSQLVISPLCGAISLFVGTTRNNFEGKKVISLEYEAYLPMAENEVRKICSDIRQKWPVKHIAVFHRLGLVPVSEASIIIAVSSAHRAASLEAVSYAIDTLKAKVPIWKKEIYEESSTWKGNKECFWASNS
UniProt O95822: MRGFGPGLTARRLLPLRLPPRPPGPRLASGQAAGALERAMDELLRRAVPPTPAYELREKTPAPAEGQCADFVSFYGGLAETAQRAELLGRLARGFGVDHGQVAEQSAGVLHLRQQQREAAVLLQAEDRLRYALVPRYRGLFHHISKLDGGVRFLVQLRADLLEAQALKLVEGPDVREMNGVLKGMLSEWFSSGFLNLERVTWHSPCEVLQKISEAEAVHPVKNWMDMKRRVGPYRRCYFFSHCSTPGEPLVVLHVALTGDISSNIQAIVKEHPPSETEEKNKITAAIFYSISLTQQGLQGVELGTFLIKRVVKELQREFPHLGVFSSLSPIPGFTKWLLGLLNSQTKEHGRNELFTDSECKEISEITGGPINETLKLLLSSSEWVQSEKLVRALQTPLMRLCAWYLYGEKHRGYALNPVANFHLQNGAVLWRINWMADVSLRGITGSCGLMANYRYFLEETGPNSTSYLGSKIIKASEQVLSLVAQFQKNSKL
UniProt Q9Y605: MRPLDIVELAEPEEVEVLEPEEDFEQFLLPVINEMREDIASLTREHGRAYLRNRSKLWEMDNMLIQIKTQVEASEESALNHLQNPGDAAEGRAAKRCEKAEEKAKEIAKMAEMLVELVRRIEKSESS
UniProt Q13064: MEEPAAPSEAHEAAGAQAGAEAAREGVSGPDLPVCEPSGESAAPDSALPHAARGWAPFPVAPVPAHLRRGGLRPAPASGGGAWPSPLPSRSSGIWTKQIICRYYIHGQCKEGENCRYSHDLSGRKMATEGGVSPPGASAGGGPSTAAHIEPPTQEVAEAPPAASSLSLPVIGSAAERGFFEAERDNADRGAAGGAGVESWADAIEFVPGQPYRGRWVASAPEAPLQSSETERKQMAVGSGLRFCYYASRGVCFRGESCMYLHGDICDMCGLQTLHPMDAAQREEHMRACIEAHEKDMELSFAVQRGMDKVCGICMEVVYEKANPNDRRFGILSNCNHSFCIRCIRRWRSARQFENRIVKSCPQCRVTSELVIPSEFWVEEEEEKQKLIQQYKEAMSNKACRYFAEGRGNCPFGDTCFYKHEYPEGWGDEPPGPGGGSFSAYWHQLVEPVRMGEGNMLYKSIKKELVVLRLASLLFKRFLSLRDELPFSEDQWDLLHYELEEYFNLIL

Tests used:
Experiment in all cases: log2 fold change, soluble protein after heating vs DMSO (PISA); higher = thermal stabilisation; K562 lysate, 10 uM; active = over 0.2 and 3.5 SD of the protein, either way, in both replicates (recomputed)
[1] = compound: C=CC(=O)N1CCC[C@@H](n2nc(-c3ccc(Oc4ccccc4)cc3)c3c(N)ncnc32)C1 [ibrutinib]
In short: (§1)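 K562 pellets were dounce-homogenised in PBS pH 7.4 with 1 mM MgCl2, and the crude extract at 1 mg/mL protein was treated with 10 μM compound for 30 min. Aliquots were heated for 3 min across 48°C-58°C, pooled, and brought to 0.5% NP-40 at 4°C; soluble protein was the supernatant after 21,000xg for 90 min. Soluble protein was quantified by TMTpro 16plex LC-MS/MS with channel sums equalised, and reported as log2 fold change in thermal stability against DMSO controls, with values from duplicates.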

[2] = compound: CC(=O)c1cnc2ccc(-c3cc(Cl)c(O)c(Cl)c3)nc2c1N[C@H]1CC[C@H](CN(C)C)CC1
In short: as §1

[3] = compound: CC(C)(C)Cn1c(N)nc2ccc(-c3[nH]c(C(C)(C)C)nc3-c3ccc(F)cc3)nc21 [ralimetinib]
In short: as §1

[4] = compound: CC(C)(O)CC(=O)NCCn1ccc2ncnc(Nc3ccc(Oc4cccc(C(F)(F)F)c4)c(Cl)c3)c21
In short: as §1

[5] = compound: CC(C)C1=C2N=C(C=C(N2N=C1)NCC3=CC=CC=C3)NCCCCCCN
In short: as §1

[6] = compound: CC1=C(C(CC(=O)N1)C2=CC=C(C=C2)C(F)(F)F)C(=O)NC3=C(C=C4C(=C3)C=NN4)F
In short: as §1

[7] = compound: CC1=C(C2=C(C=C1)C(=O)C3=CC=CC=C3N2CCCN)C
In short: as §1

[8] = compound: CC1=C(C=C(C=C1)NC(=O)C2=CC(=CC=C2)C(C)(C)C#N)NC3=CC4=C(C=C3)N=CN(C4=O)C
In short: as §1

[9] = compound: CC1=C(C=C(C=C1)NC(=O)C2=CC(=CC=C2)N(C)C)NC(=O)C3=CC=C(C=C3)O
In short: as §1

[10] = compound: CC1=CC=C(C=C1)SC2=C3C=C(SC3=CN=C2)C(=O)N
In short: as §1

[11] = compound: CCCS(=O)(=O)Nc1ccc(F)c(C(=O)c2c[nH]c3ncc(-c4ccc(Cl)cc4)cc23)c1F [vemurafenib]
In short: as §1

[12] = compound: CCCS(=O)(=O)Nc1ccc(F)c(C(=O)c2c[nH]c3ncc(Cl)cc23)c1F
In short: as §1

[13] = compound: CCN(CCCOc1ccc2c(Nc3cc(CC(=O)Nc4cccc(F)c4)[nH]n3)ncnc2c1)CCOP(=O)(O)O [barasertib]
In short: as §1

[14] = compound: CC[C@@H]1C(=O)N(C)c2cnc(Nc3ccc(C(=O)NC4CCN(C)CC4)cc3OC)nc2N1C1CCCC1
In short: as §1

[15] = compound: CC[C@@H]1C(=O)N(C)c2cnc(Nc3ccc(C(=O)N[C@H]4CC[C@H](N5CCN(CC6CC6)CC5)CC4)cc3OC)nc2N1C(C)C [volasertib]
In short: as §1

[16] = compound: CCn1c(C(=O)N(C2CC2)C2CC2)cc2c3c(ncn3C)c(Nc3cc(C)n(C)n3)nc21
In short: as §1

[17] = compound: CCn1cc(-c2ccnc3[nH]c(-c4cccc(CN(C)C)c4)cc23)c(-c2ccc(NC(=O)N(C)C)cc2)n1
In short: as §1

[18] = compound: CN1CCC(CNc2ccc3ncc(-c4cccc(OC(F)(F)F)c4)n3n2)CC1
In short: as §1

[19] = compound: CN1CCN(CCOc2cc(OC3CCOCC3)c3c(Nc4c(Cl)ccc5c4OCO5)ncnc3c2)CC1 [saracatinib]
In short: as §1

[20] = compound: CN1CCN(c2nc(C3=C(c4c[nH]c5ccccc45)C(=O)NC3=O)c3ccccc3n2)CC1 [sotrastaurin]
In short: as §1

Measured: log2 fold change

MICU2 (UniProt Q8IYU8)
inactive: [1] 0.036 | [2] -0.095 | [3] -0.019 | [4] -0.026 | [5] -0.016 | [6] -0.019 | [7] -0.004 | [8] 0.012 | [9] -0.018 | [10] 0.013 | [11] -0.061 | [12] 0.043 | [13] 0.109 | [14] -0.023 | [15] 0 | [16] -0.036 | [17] 0.013 | [18] -0.101 | [19] 0.021 | [20] 0.126

MIPEP (UniProt Q99797)
inactive: [1] 0.041 | [2] 0.054 | [3] 0.027 | [4] 0.07 | [5] -0.02 | [6] -0.001 | [7] -0.003 | [8] -0.067 | [9] 0.044 | [10] 0.003 | [11] -0.026 | [12] 0.004 | [13] 0.006 | [14] -0.053 | [15] -0.029 | [16] 0.029 | [17] -0.05 | [18] -0.015 | [19] 0.001 | [20] -0.042

MIS12 (UniProt Q9H081)
inactive: [1] 0.117 | [2] -0.035 | [3] 0.057 | [4] -0.035 | [5] -0.026 | [6] -0.001 | [7] 0.024 | [8] 0.01 | [9] -0.001 | [10] -0.016 | [11] 0.015 | [12] 0.03 | [13] 0.144 | [14] 0.003 | [15] 0.01 | [16] -0.013 | [17] -0.042 | [18] 0.011 | [19] -0.036 | [20] -0.051

MOB1B isoform 2 (UniProt Q7L9L4)
inactive: [1] 0.001 | [2] -0.011 | [3] 0.025 | [4] -0.059 | [5] 0.004 | [6] 0.01 | [7] 0.023 | [8] 0.015 | [9] -0.007 | [10] -0.021 | [11] 0.018 | [12] -0.029 | [13] -0.014 | [14] 0.048 | [15] 0.023 | [16] 0.001 | [17] -0.075 | [18] 0.03 | [19] 0.007 | [20] 0.031

MOCS2 (UniProt O96007)
inactive: [1] 0.009 | [2] -0.031 | [3] -0.043 | [4] -0.016 | [5] -0.038 | [6] 0.014 | [7] -0.006 | [8] 0.003 | [9] 0.004 | [10] -0.015 | [11] -0.02 | [12] 0.021 | [13] 0.014 | [14] 0.06 | [15] 0.028 | [16] -0.045 | [17] 0.093 | [18] -0.008 | [19] 0.012 | [20] -0.058

MLYCD (UniProt O95822)
inactive: [1] -0.05 | [2] 0.154 | [3] -0.012 | [4] -0.116 | [5] 0.053 | [6] -0.064 | [7] 0.002 | [8] -0.035 | [9] -0.021 | [10] 0.011 | [12] -0.011 | [13] 0.118 | [14] -0.093 | [15] 0.003 | [16] 0.012 | [17] -0.054 | [18] 0.119 | [19] -0.004 | [20] 0

MRFAP1 (UniProt Q9Y605)
inactive: [1] -0.061 | [2] 0.07 | [3] -0.007 | [4] 0.036 | [5] -0.009 | [6] -0.047 | [7] 0.005 | [8] 0.039 | [9] 0.053 | [10] -0.042 | [11] -0.132 | [12] 0.001 | [13] -0.009 | [14] -0.012 | [15] 0.051 | [16] -0.004 | [17] -0.066 | [18] 0.003 | [19] 0.023 | [20] 0.02

MKRN3 (UniProt Q13064)
inactive: [1] 0.016 | [2] 0.09 | [3] -0.152 | [4] 0.013 | [5] -0.115 | [6] -0.054 | [7] 0.218 | [8] 0.001 | [9] 0.032 | [10] 0.05 | [11] 0.017 | [12] -0.01 | [13] 0.021 | [15] -0.016 | [16] -0.139 | [17] 0.036 | [18] 0.011 | [19] -0.05 | [20] -0.024

Reprinted from the entries so far (2 entries):
MICU2 (UniProt Q8IYU8)
inactive: [1] 0.036 | [2] -0.095 | [3] -0.019 | [4] -0.026 | [5] -0.016 | [6] -0.019 | [7] -0.004 | [8] 0.012 | [9] -0.018 | [10] 0.013 | [11] -0.061 | [12] 0.043 | [13] 0.109 | [14] -0.023 | [15] 0 | [16] -0.036 | [17] 0.013 | [18] -0.101 | [19] 0.021 | [20] 0.126

MIPEP (UniProt Q99797)
inactive: [1] 0.041 | [2] 0.054 | [3] 0.027 | [4] 0.07 | [5] -0.02 | [6] -0.001 | [7] -0.003 | [8] -0.067 | [9] 0.044 | [10] 0.003 | [11] -0.026 | [12] 0.004 | [13] 0.006 | [14] -0.053 | [15] -0.029 | [16] 0.029 | [17] -0.05 | [18] -0.015 | [19] 0.001 | [20] -0.042
